The source of these data is PMC9133088.

Amino acid sequences for entries named in this document (tags omitted). A change or cut given only in a name is not applied to a line headed by its entry.
UniProt Q9P2J5: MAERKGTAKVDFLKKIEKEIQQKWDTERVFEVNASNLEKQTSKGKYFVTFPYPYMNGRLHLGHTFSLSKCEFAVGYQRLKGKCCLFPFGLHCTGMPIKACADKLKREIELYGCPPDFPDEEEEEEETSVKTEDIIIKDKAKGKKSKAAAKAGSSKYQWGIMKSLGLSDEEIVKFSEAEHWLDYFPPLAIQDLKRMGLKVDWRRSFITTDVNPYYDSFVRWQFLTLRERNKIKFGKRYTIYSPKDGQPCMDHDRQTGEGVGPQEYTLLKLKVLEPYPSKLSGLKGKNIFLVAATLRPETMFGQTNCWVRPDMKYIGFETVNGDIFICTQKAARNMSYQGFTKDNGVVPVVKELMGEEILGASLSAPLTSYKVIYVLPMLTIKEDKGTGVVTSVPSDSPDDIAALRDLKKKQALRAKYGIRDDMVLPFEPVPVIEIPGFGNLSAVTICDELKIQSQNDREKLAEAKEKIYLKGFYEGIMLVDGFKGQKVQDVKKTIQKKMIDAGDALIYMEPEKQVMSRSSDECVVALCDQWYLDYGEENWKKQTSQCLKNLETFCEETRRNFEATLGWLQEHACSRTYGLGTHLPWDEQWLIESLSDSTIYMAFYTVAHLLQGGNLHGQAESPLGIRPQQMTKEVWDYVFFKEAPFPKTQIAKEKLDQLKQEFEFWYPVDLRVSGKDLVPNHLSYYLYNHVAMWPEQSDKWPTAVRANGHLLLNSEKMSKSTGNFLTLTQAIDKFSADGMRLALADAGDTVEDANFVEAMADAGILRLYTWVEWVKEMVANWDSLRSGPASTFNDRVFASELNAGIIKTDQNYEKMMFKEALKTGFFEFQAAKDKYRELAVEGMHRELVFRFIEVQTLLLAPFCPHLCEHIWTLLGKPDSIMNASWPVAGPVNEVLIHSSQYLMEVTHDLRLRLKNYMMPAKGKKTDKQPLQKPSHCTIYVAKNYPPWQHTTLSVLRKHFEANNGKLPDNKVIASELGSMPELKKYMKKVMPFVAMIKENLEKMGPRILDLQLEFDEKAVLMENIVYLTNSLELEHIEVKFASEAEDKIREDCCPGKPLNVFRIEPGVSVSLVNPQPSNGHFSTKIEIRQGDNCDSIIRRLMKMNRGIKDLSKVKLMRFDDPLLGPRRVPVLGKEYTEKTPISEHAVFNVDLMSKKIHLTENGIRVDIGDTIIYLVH
UniProt Q9HB90: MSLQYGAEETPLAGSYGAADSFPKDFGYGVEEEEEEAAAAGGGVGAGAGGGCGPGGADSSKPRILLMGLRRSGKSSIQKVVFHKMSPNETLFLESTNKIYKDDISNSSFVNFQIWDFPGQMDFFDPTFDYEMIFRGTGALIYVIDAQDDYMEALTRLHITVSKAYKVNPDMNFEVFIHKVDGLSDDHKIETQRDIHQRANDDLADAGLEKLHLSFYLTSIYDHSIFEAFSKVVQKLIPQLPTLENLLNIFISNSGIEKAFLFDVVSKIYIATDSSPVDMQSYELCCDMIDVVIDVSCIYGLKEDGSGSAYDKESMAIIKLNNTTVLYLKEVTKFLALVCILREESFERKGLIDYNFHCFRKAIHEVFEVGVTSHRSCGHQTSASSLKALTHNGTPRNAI
UniProt Q9NQL2: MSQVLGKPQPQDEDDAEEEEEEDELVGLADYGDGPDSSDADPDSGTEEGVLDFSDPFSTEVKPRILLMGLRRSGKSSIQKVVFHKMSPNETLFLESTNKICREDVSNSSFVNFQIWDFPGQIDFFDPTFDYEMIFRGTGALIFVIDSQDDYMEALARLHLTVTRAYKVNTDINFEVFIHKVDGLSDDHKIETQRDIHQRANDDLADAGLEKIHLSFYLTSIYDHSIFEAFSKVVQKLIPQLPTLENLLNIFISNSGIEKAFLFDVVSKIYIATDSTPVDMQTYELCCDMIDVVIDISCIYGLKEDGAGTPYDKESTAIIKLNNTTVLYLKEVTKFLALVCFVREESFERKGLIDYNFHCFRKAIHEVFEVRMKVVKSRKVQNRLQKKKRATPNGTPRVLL

The target in test [1] is His-tagged WT LARS1, unmodified (purified from E. coli without OGT1) (human) (UniProt Q9P2J5). Nature of the test: pull-down; His-tagged LARS1 proteins from E. coli on Ni-NTA beads, incubated 1 h with Myc-RagD or HA-RagC with 200 uM ATP/2 mM leucine; 50 mM HEPES/NaOH pH 7.4, 150 mM NaCl, 5 mM MgCl2, 0.5 mM EDTA, 0.1% Triton X-100 (Fig. 4g); only the target purified.
Test [2] concerns the target His-tagged S1042A mutant LARS1 (human) (UniProt Q9P2J5). The test is described as above.
For test [3], the target named is Myc-tagged LARS1 S1042A mutant (human) (UniProt Q9P2J5). The experiment in a line: co-IP; SW620 cells transfected with Myc-LARS1 constructs, starved of glucose for 4 h; anti-Myc antibody-conjugated agarose beads, immunoblot for RagD (Fig. 4h). (In general: A western blot detects proteins with antibodies after separation by electrophoresis.)
Test [4] has as its target Strep-tagged LARS1 S1042A mutant (human) (UniProt Q9P2J5). The experiment in a line: pull-down; Strep-tagged LARS1 expressed in cells, cells starved of glucose for 4 h (absence of glucose); precipitated with Strep beads, immunoblot for ULK1 and RagD (Supplementary Fig. 5d).

These are yes or no findings as the source states them, for the method shown. Binding seen in cells or lysates may run through a third protein. Some binding calls cover weakened binding; strength is not graded here.

Consider “HA-tagged RagC (WT) (from UniProt Q9HB90 1-399) (other; other documents disagree on this pair)”, for which the binding entry in test [1] was “no binding”.
Take “Myc-tagged RagD (WT) (from UniProt Q9NQL2 1-400)”: the binding entry in test [2] is “binds”.
Take “RagD GTPase, endogenous (from UniProt Q9NQL2 1-400)”: the binding result in test [3] and in test [4] was “binds” throughout.
